Experimental findings from PubChem BioAssay AID1458 (National Center for Advancing Translational Sciences (NCATS), 2008) are described below.

Hit rate of the full screen: of about 210,000 compounds, about 5,900 (2.8%) were called active. About 5% were inconclusive and are not listed. Calls follow the shape of the dose curve; as a rule, active = well fitted activation curve with a large enough effect; inconclusive = small, poorly fitted or top-dose-only effect; inactive = no such curve, though single readings can be large or run the other way. The list shows a part of the results, in another mix than the full data. Where no call is shown, the source filed none.
Potency is read from the fitted curve at half-maximal effect.

This assay is described as follows: qHTS Assay for Enhancers of SMN2 Splice Variant Expression. Also: nearly all actives have a fitted effect of over 55% in size. As to activity change, positive = activation: % of control where 0% means no effect. The following applies: HEK293 SMN2-luciferase splicing reporter, luminescence, 30-36 h; activity change, positive = activation: at 46.1 µM (top of the series) unless noted. The essentials: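 HEK293 cells carry an SMN2 […]–luciferase reporter in which exon 7 inclusion puts luciferase in frame. Cells were plated 10-12 h before compound addition, then incubated 30-36 h at 37C. ONE-Glo luminescence was read; sodium butyrate at 4.5 mM final served as control.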
For orientation: Quantitative high-throughput screening tests each substance at several concentrations.
As for `Cn1c(=O)cc(OCCCC(=O)NCc2ccco2)c2ccccc21`, the Potency was active: 10 µM.

Regarding `COC(=O)C1CCN(C(=O)COc2cc3sc(C)nc3c3sccc23)CC1`, the activity change, positive = activation amounted to 47.9%.

Take `CCCCOc1ccc(/C=C/C(=O)OCC(=O)N2CC(=O)Nc3ccccc32)cc1OCC`: the “activity change, positive = activation” value was inactive: -60.5%.

With `Cc1ccc(NC(=O)c2oc3ccccc3c2NC(=O)C2CCCCC2)cc1`, the activity change, positive = activation was 37.6%.

`COc1ccc(CCNC(=O)CCc2c(C)c3ccc(O)c(C)c3oc2=O)cc1`: the activity change, positive = activation was 45.8%.

Turning to `Cc1cccc(-n2ncc3c(N(CCO)CCO)ncnc32)c1`, the Potency is active: 14.1 µM.

As for `O=C(NC(=S)Nc1ccccc1O)c1ccccc1Cl`, the Potency is active: 12.6 µM.

Regarding `CCCCCCSC1=C(C#N)C(c2ccc(O)cc2)CC(=O)N1` (stereo unspecified), the activity change, positive = activation is 20.8%.

Take `O=[N+]([O-])c1ccccc1S(=O)(=O)NCCc1ccncc1`: the activity change, positive = activation is -38.7%.

For the compound `CN1/C(=C\C=N\NC(=O)c2ccccc2Br)C(C)(C)c2ccccc21`, the activity change, positive = activation is -71.6%.

Consider `CCc1ccc(C(=O)NNC(=O)OC)cc1`, for which the activity change, positive = activation is -42%.

Turning to `NC(=O)C1CCCN(Cc2ccc(Cl)cc2)C1` (stereo unspecified), the activity change, positive = activation worked out at 48.5%.

With `COc1cccc(NC(=O)Cn2c(=O)n(Cc3ccc(C(=O)NCc4ccc(C)cc4)cc3)c(=O)c3ccccc32)c1`, the “activity change, positive = activation” value was inactive: -10.9%.

In the case of `CCOc1cc(C2C(C(=O)N3CCCCC3)=C(C)NC3=C2C(=O)CCC3)cc(Br)c1O` (stereo unspecified), the activity change, positive = activation came to 61.6%.

With `Cc1nn(-c2ccccn2)c2nc(-c3cccs3)cc(C(=O)NCc3ccco3)c12`, the activity change, positive = activation amounted to 37%.

On to `CCN(CC)C(=O)CCCSc1nnc(Nc2ccccc2F)s1`, for which the activity change, positive = activation came out at 72.6%.

Regarding `C/C(=N\O)C(=O)C(CN1CCCCC1)CN1CCCCC1`, the activity change, positive = activation was 24.9%.

Turning to `CCn1c(=NC(=O)CSC(C)=O)sc2cc(OC)ccc21`, the activity change, positive = activation is -33.2%.

On to `Cc1ccc(NC2CC(=O)N(Cc3ccccc3)C2=O)cc1` (stereo unspecified), for which the activity change, positive = activation was 49.7%.

For `CCNC(=O)C1CC(=O)N(c2ccc(Br)cc2)C1` (stereo unspecified), the activity change, positive = activation came to 20.9%.

As to `COc1ccc(N(C(=O)c2ccc(C(C)(C)C)cc2)S(=O)(=O)c2ccc(Cl)cc2)cc1`, the “activity change, positive = activation” value is inactive: -35.7%.

In the case of `CCNc1nc(-c2cc3ccccc3o2)cs1`, the Potency was active: 3.16 µM.

For the compound `Fc1ccc(C2CC(c3ccco3)=NN2c2ccccc2)cc1` (stereo unspecified), the activity change, positive = activation was -31.9%.

Take `COc1ccc(/C=C/C(=O)N2CCN(c3ccccn3)CC2)c2ccccc12`: the “activity change, positive = activation” value was inactive: -32.7%.

Consider `CCCSc1nn2c(=O)c3ccccc3nc2s1`, for which the Potency is active: 35.5 µM.

Take `CCCS(=O)(=O)c1cn2cccc(N)c2c1S(=O)(=O)CCC`: the activity change, positive = activation came out at 39.2%.

For `Cc1ccc2c(c1)nnn2C1CCN(S(=O)(=O)c2ccc(C(=O)N3CC(C)CC(C)C3)cc2)CC1` (stereo unspecified), the activity change, positive = activation was -75.5%.

In the case of `O=C(/C=C/c1ccc(-c2ccccc2)o1)c1ccccc1`, the activity change, positive = activation was 79.2%.

Consider `COc1ccc(-n2c(C)nc3c(cnn3-c3ccc(Cl)cc3)c2=O)cc1`, for which the “activity change, positive = activation” value was inactive: -50.3%.

With `O=C(CSc1nc2ccccc2o1)N1c2ccccc2Sc2ccccc21`, the activity change, positive = activation is -46.5%.

For the compound `COCCCNC(=O)c1c(N)n(/N=C/c2cccnc2)c2nc3ccccc3nc12`, the activity change, positive = activation is 32.4%.

On to `COc1ccc(CNC(=O)CSc2nnc(Cn3nnc4ccccc43)n2C)cc1`, for which the activity change, positive = activation stood at 27.2%.

On to `O=C(Nc1nccs1)c1ccc(Br)o1`, for which the Potency was active: 11.2 µM.

In the case of `C/C(=N/NC(=O)CSc1ccccn1)c1ccc([N+](=O)[O-])cc1`, the activity change, positive = activation was -4.05%.

Regarding `COc1cc(C2C(C#N)=C(N)Oc3cc(C)oc(=O)c32)ccc1OC(=O)N1CCOCC1` (stereo unspecified), the activity change, positive = activation came to 27.1%.

As to `Cc1cc(OCCn2cnc3ccccc3c2=O)ccc1[N+](=O)[O-]`, the “activity change, positive = activation” value was inactive: -19.5%.

In the case of `COc1ccc(C2CC(=O)c3c([nH]c(C(=O)OCc4ccccc4)c3C)C2)cc1OC` (stereo unspecified), the “activity change, positive = activation” value is inactive: -1.45%.

Regarding `CC(=O)Nc1cccc(NC(=O)C2CC3CCC2C3)c1` (stereo unspecified), the activity change, positive = activation is 48%.

With `CC(c1ccco1)N(C(=O)c1ccc(C#N)cc1)c1ccccn1` (stereo unspecified), the activity change, positive = activation stood at 27.7%.

Take `COc1ccc(C(=O)Nn2c(SCc3cccc([N+](=O)[O-])c3)nc3ccccc3c2=O)cc1`: the activity change, positive = activation is -49.7%.

As for `CSc1nc(C)c2c(n1)N(c1cccc(C)c1)CC2`, the activity change, positive = activation worked out at 24.1%.

For `CC(C(=O)N=c1sc2ccccc2n1C)N1C(=O)C2CC=CCC2C1=O` (stereo unspecified), the activity change, positive = activation worked out at 26.8%.

Consider `CCOC(=O)Cc1csc(NC(=O)CCS(=O)(=O)Cc2ccccc2)n1`, for which the activity change, positive = activation was found to be 40.4%.

For the compound `c1ccc2nc(-c3nc4ccccc4o3)ccc2c1`, the activity change, positive = activation was -46.3%.

As for `Cc1ccc(C(=O)NC(C)c2ccccc2)cc1Br` (stereo unspecified), the activity change, positive = activation was -0.816%.

Turning to `Nc1c(-c2ccc(Cl)cc2)nnn1-c1ccccc1`, the activity change, positive = activation is 168%.

Consider `O=C(Nc1ccc(O)cc1)c1c(O)c2c([nH]c1=O)CCCC2`, for which the Potency is active: 11.2 µM.

On to `O/N=C1/CCc2cccc3cccc1c23`, for which the activity change, positive = activation amounted to 30%.

With `COC(=O)C1C(c2ccccc2)C(C(=O)N2CCN(C)CC2)C1c1ccccc1` (stereo unspecified), the activity change, positive = activation stood at 7.46%.

With `Cc1noc2ncnc(Sc3ccccc3Cl)c12`, the activity change, positive = activation was determined as 37.6%.

Turning to `Cc1cc(S(=O)(=O)N2CCCC2)ccc1OCC(=O)NCc1ccco1`, the activity change, positive = activation was 39.3%.

Regarding `CC(C)(C)c1ccc(NC(=O)COc2ccc(-n3ccnc3)cc2)cc1`, the activity change, positive = activation was -89.9%.

`Cc1cc2n(n1)C(c1ccc3c(c1)OCO3)Nc1c(C)cccc1-2` (stereo unspecified): the Potency was active: 3.98 µM.

With `CCc1ccc(C(=O)Nc2cc3c(cc2Cl)OCCCO3)cc1`, the Potency is active: 25.1 µM.

As for `COc1ccccc1Nc1nc(-c2ccc3c(c2)NC(=O)CO3)cs1`, the “activity change, positive = activation” value is inactive: -95.5%.

As to `O=C(Nc1nc(-c2ccc(S(=O)(=O)N3CCCCCC3)cc2)cs1)c1cccs1`, the “activity change, positive = activation” value was inactive: -52%.
